Data as given in PubChem BioAssay AID1259254 (NCATS, 2017).
Screen: 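Finding genes that stop cells copying their DNA twice in one cycle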 (primary screen). Cell system: human HCT116 colorectal cancer cells. Knock-down reagent: single siRNA against human genes. Duration: 3 days. Measurement: 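Nuclei stained with Hoechst and imaged; cell-cycle phase assigned by DNA content; G2 share scaled per plate, non-targeting siRNA 0%, GMNN siRNA 100%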. Reading the numbers: G2 robust z-score: higher = more G2 cells, more excess DNA replication. Active means: 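Active siRNAs have a G2 robust z of 5 or more median absolute deviations over the median, which in these data means about 38% or higher of GMNN control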.
This is a random part of about 59,000 reagents tested. About 1,550 of them (2.6%) count as active. 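G2 share is only a proxy for re-replication; each gene was hit by three separate siRNAs, and active genes were retested.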 A number with no mark means an inactive call. The numbers tell different reagents against one gene apart. Further read-outs or replicates are left out here. Not given: the amount of reagent.

| Target gene | siRNA no. | G2 robust z-score |
| --- | --- | --- |
| SMCR8 | 1 | 3.27 |
| SMCR8 | 2 | -0.633 |
| SMCR8 | 3 | 0.0357 |
| RHOB | 1 | 0.556 |
| RHOB | 2 | 3.49 |
| RHOB | 3 | 0.588 |
| DPY30 | 1 | -0.894 |
| DPY30 | 2 | -0.54 |
| DPY30 | 3 | -0.602 |
| OR10J5 | 1 | -0.961 |
| OR10J5 | 2 | 1.28 |
| OR10J5 | 3 | -0.248 |
| SLC39A8 | 1 | 1.42 |
| SLC39A8 | 2 | 0.0166 |
| SLC39A8 | 3 | 0.813 |
| DAGLA | 1 | -1 |
| DAGLA | 2 | 0.18 |
| DAGLA | 3 | 0.92 |
| TBX5-AS1 | 1 | 0.189 |
| TBX5-AS1 | 2 | -0.537 |
| TBX5-AS1 | 3 | 0.987 |
| UTF1 | 1 | -0.198 |
| UTF1 | 2 | 0.192 |
| UTF1 | 3 | 1.22 |
| GRAMD1C | 1 | 0.318 |
| GRAMD1C | 2 | 2.73 |
| GRAMD1C | 3 | 0.17 |
| UGP2 | 1 | 9.55 (active) |
| UGP2 | 2 | 0.188 |
| UGP2 | 3 | -0.0786 |
| SPINK5 | 1 | -0.71 |
| SPINK5 | 2 | -0.899 |
| SPINK5 | 3 | -0.482 |
| PDZD8 | 1 | 0.327 |
| PDZD8 | 2 | -0.602 |
| PDZD8 | 3 | -0.197 |
| PIGN | 1 | -0.899 |
| PIGN | 2 | -1.5 |
| PIGN | 3 | 0.257 |
| ZZZ3 | 1 | 3.88 |
| ZZZ3 | 2 | 1.06 |
| ZZZ3 | 3 | -0.727 |
| SEC14L6 | 1 | -0.416 |
| SEC14L6 | 2 | -0.213 |
| SEC14L6 | 3 | 5.4 (active) |
| ZDHHC8 | 1 | -0.524 |
| ZDHHC8 | 2 | -0.488 |
| ZDHHC8 | 3 | -1.07 |

An excerpt of the results above, as a working copy:
| Target gene | siRNA no. | G2 robust z-score |
| --- | --- | --- |
| UTF1 | 3 | 1.22 |
| GRAMD1C | 1 | 0.318 |
| GRAMD1C | 2 | 2.73 |
| GRAMD1C | 3 | 0.17 |
